Measured values as given in paper PMC5945058.

Target: CT2-YFP (YFP inserted at an internal position), expressed in N. benthamiana (maize)
Assay: co-IP; co-expression in N. benthamiana leaves; Triton X-100-solubilized microsomal membrane fractions; anti-GFP magnetic beads capture CT2-YFP or CT2^CA-YFP, 30 min at 4°C; FEA2-Myc detected with anti-Myc

B1: … EAR2 (FEA2), LRR receptor-like protein, 6xMyc-tagged, expressed in N. benthamiana (receptor, UniProt Q940E8 29-613)
chain: ASTDRAALLAFRASLSPPSRAALSSWSGPLSPSWLGVSLHPATAPAPSVTTPSVAELSLRGLNLTGVIPAAPLALLRRLRTLDLSANALSGELPCSLPRSLLALDLSRNALSGAVPTCLPSSLPALRTLNLSANFLRLPLSPRLSFPARLAALDLSRNAISGAVPPRIVADPDNSALLLLDLSHNRFSGEIPAGIAAVRSLQGLFLADNQLSGDIPPGIGNLTYLQVLDLSNNRLSGSVPAGLAGCFQLLYLQLGGNQLSGALRPELDALASLKVLDLSNNKISGEIPLPLAGCRSLEVVDLSGNEISGELSSAVAKWLSLKFLSLAGNQLSGHLPDWMFSFPLLQWLDLSSNKFVGFIPDGGFNVSEVLNGGGGQGTPSESVLPPQLFVSASVDTVSWQLDLGYDVQATTGIDLSGNELCGEIPEGLVDMKGLEYLNLSCNYLAGQIPAGLGGMGRLHTLDFSHNGLSGEVPPGIAAMTVLEVLNLSYNSLSGPLPTTKFPGALAGNPGICSGKGCSENARTPEGKMEGSNHRGWLGGWHGENGWVSLGAFCISTMTSFYVSLATLLCSSNARNFVFRPVRVEY
In the case of B1, the binding is reported as “binds”.

These are yes or no findings as the source states them, for the method shown. In cells and extracts the contact can be indirect. Binding can be weak; no strength is given. Sequences can lack the tags named with a protein.
